Measured values: PubChem BioAssay AID743402 (Broad Institute, 2014)
About 140 (12%) of roughly 1,200 compounds were called active.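 Rule for the calls: active = fitted curve falls past -35% activity change at a dose under twice the top valid dose, in every replicate test; inconclusive = replicate tests disagree on the call; inactive = the rest, including activity in the opposite direction.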 The list lacks most of the strong results.

assay: CFTR-F508del correctors, dose response, FRT cells, YFP quenching, cherry-pick (AID 743402); conditions: FRT CFTR-F508del YFP iodide quenching, 24 h, channel opened with forskolin and a potentiator; at 26 µM (top of the series) unless noted;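 note: compounds act as correctors raising surface CFTR-F508del before acute activation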

Activity change, negative = more quenching (active), inactive:
COc1cccc(N2CCN(C(=O)c3ccc(CS(=O)c4ccc(C)cc4)o3)CC2)c1 (stereo not drawn) -9.58%
C[C@H]1CCCCO[C@H](CN(C)C(=O)Nc2ccc(C(F)(F)F)cc2)[C@@H](C)CN([C@@H](C)CO)C(=O)c2cc(NC(=O)Nc3ccc(F)cc3)ccc2O1 27.6%
COc1ccc(C#Cc2ccc3c(c2)[C@@H]2[C@@H](CCN2C(=O)c2cccc(F)c2)[C@@H](CO)N3)cc1 10.2%
COCCNc1nc(Nc2ccc(C)cc2C)c2sccc2n1 -9.58%
COc1ccc(CCn2c(NN=C(C)C)nc3c2c(=O)[nH]c(=O)n3C)cc1 -10%
O=C(CCCl)Nc1nc2c(s1)CCc1ccccc1-2 1.61%
COc1cc(/C=C(\C#N)c2nc3ccccc3[nH]2)cc(OC)c1O 1.72%
CCN(C(=O)COC(=O)/C=C/c1c(C)nn(-c2ccccc2)c1C)c1c(N)n(Cc2ccccc2)c(=O)[nH]c1=O 16.2%
COc1cc(OC)cc(C(=O)NC(=S)Nc2ccc3oc(=O)ccc3c2)c1 12.5%
CCOc1ccc(NC(=O)c2ccccc2NC(=O)CNC2CCCC(C)C2C)cc1 (stereo not drawn) -4.74%
Cc1ccc(NC(=O)c2ccc(Cl)c(S(=O)(=O)Nc3c(C)n(C)n(-c4ccccc4)c3=O)c2)cc1Cl -12.7%
COc1ccc(NC(=O)Nc2ccc3c(c2)C(=O)N([C@H](C)CO)C[C@@H](C)[C@H](CN(C)Cc2ccc(C(F)(F)F)cc2)OCCCC[C@H](C)O3)cc1 6.25%
COc1ccccc1/C=C/C=N/NC(=O)CCn1cnc2ccccc21 0%
O=C(Cc1ccccn1)NCC[C@H]1CC[C@H](NC(=O)Nc2ccc(C(F)(F)F)cc2)[C@H](CO)O1 3.57%
COc1ccc(/C(C)=N/NC(=O)c2cccc(S(=O)(=O)N3CCCC3)c2)c(O)c1 -7.96%
COc1ccc(C#Cc2ccc3c(c2)O[C@H](CN(C)C(=O)Nc2cccc(OC)c2)[C@H](C)CN([C@H](C)CO)S3(=O)=O)cc1 13.1% [at 23.5 µM]
CCCOc1ccc(C(=O)CCCC(=O)c2ccc(OCCC)cc2)cc1 10%
CN1C(=O)c2cc(NC(=O)Cc3ccccc3)ccc2OC[C@@H]2O[C@H](CC(=O)NCc3ccc(Cl)cc3)CC[C@H]21 -16%
Cc1noc(C)c1COc1ccc(C(=O)NNC(=O)c2ccccc2)cc1 -3.12%
C=CCn1c(SCC(=O)N(C)C2CCS(=O)(=O)C2)nc2ccccc2c1=O (stereo not drawn) 6.46%
COc1cccc(S(=O)(=O)N(C)C[C@@H]2Oc3cc(C4=CCCC4)ccc3S(=O)(=O)N([C@H](C)CO)C[C@H]2C)c1 -3.33%
CCC1(C2=CCCCC2)C(=O)NC(=S)N=C1N (stereo not drawn) 10%
C[C@@H]1CN([C@@H](C)CO)S(=O)(=O)c2ccc(-c3ccc(C#N)cc3)cc2O[C@H]1CN(C)Cc1cccc(F)c1 0%
CCOC(=O)C1=CN(Cc2ccco2)S(=O)(=O)NC1c1ccc(C(F)(F)F)cc1 (stereo not drawn) 3.33%
C/C=C/c1ccc([C@H]2[C@@H](CNC(=O)CC)N(C(=O)COC)[C@H]2CO)cc1 15.8%
CCOc1ccccc1N1CCN(C(=O)c2cc3ccccc3cc2OC)CC1 -1.61%
CCN(CC)CCCNc1nc2ccccc2c2nc(-c3ccncc3)nn12 12.9%
CCN1C(=O)[C@H]2[C@@H](c3ccc(-c4ccc(Cl)c(Cl)c4)cc3)N[C@@](C)(C(=O)OC)[C@H]2C1=O 6.67%
CCOc1ccc(S(=O)(=O)N2CCOCC2)cc1NC(=O)CSCC(=O)Nc1ccc(OC)cc1 14.8%
Cc1cccc(C(=O)NCC(=O)OCC(=O)N(C)CC(=O)Nc2ccccc2Cl)c1 9.79%
COc1ccc(Cl)cc1C(=O)NNC(=O)CCNS(=O)(=O)c1ccccc1 8.01%
Cc1occc1C(=O)N/N=C/c1c(O)ccc2ccccc12 9.13%
O=C1CN(S(=O)(=O)Cc2ccccc2)C[C@@H]2[C@@H](c3ccc(C#Cc4cccc(F)c4)cc3)[C@@H](CO)N12 -10.7%
C[C@H]1CCCCO[C@@H](CN(C)C(=O)C2CCCCC2)[C@@H](C)CN([C@@H](C)CO)C(=O)c2cc(NC(=O)Nc3ccc(C(F)(F)F)cc3)ccc2O1 13.4% [at 23.5 µM]
CCc1c(C)nc2ncnn2c1NCCc1ccc(OC)cc1 0%
CC1Cc2ccccc2N1S(=O)(=O)c1cccc(C(=O)N2CCN(c3ncccn3)CC2)c1 (stereo not drawn) 6.67%
CCCC(=O)NC(NC(=S)Nc1ccc(N=Nc2ccccc2)cc1)C(Cl)(Cl)Cl (stereo not drawn) -18.4%
O=C(Cc1ccccn1)NCC[C@@H]1CC[C@H](NC(=O)Nc2ccc(C(F)(F)F)cc2)[C@@H](CO)O1 3.12%
CN(C(=O)c1ccccc1C(=O)OCC(=O)Nc1ccc(S(N)(=O)=O)cc1)c1ccccc1 -3.33%
COc1cccc(N=Nc2ccc3cccnc3c2O)c1 9.79%
COc1ccc(OC)c(-c2cnc(OC(C)(C)C)nc2OC(C)(C)C)c1 3.12%
CC(=O)NS(=O)(=O)c1ccc(NC(=O)CSc2ccc(Cl)cc2)cc1 3.57%
O=C(NCCCN1CCOCC1)c1cc(S(=O)(=O)N2CCOCC2)c(Cl)cc1Cl 6.67%
Cc1ccc(OCC(=O)Nc2ccc3c(c2)ncn3C)cc1 -6.67%
Cc1ccc(-c2cccc(CN3CCN(C(C)C)C(CCO)C3)c2)o1 (stereo not drawn) 16.2%
CC(=NNC(=S)N1CCCCC1)c1cccc(C)n1 0%
CC12CCC(CC1O)C2C(=O)O (stereo not drawn) -10.7%
O=C(N/N=C/c1ccccc1OC(F)F)c1cc(-c2ccncc2)nc2ccccc12 12.5%
Cc1ccc(C(=O)Nc2cccc(C(F)(F)F)c2)cc1Nc1cnccn1 20%
Cc1ccnc2c1ccc1cccnc12 13.1%
COC(=O)/C=C/c1ccccc1S(=O)(=O)N(Cc1ccccc1)Cc1ccco1 6.25%
CC1CN(S(=O)(=O)c2cccc(C(=O)Nc3cc(Cl)ccc3N3CCOCC3)c2)CC(C)O1 (stereo not drawn) 0%
C[C@@H]1CN([C@H](C)CO)S(=O)(=O)c2ccc(C#Cc3ccccc3F)cc2O[C@H]1CN(C)C(=O)Cc1cccnc1 16.5%
CCS(=O)(=O)N1CC(=O)N2[C@H](CO)[C@@H](c3ccc(C#CCC(C)C)cc3)[C@@H]2C1 -9.82%
Cc1cccc(N2CCN(C(=O)c3ccc4[nH]c(C)c(C)c4c3)CC2)c1C -6.67%
O=CNc1cc(-c2ccc(C(=O)NC3CC3)cc2)cn2c(-c3ccccc3)cnc12 9.58%
NS(=O)(=O)c1ccc(CCNc2nn3c(-c4cccc(OC(F)(F)F)c4)cnc3s2)cc1 3.33%
Cc1ccc(CNC(=O)COC(=O)c2ccc(S(=O)(=O)N(C)C)cc2)cc1 -13.1%
CC(Oc1ccccc1Cl)C(=O)Nc1ccc(S(=O)(=O)Nc2nccs2)cc1 (stereo not drawn) -3.85%
Cc1ccc(S(=O)(=O)NCc2ccccc2)cc1C(=O)N1CC(C)CC(C)C1 (stereo not drawn) 19.4%
CC(=O)NC(c1ccc2ccccc2c1)c1ccc2cccnc2c1O (stereo not drawn) -3.85%
O=C(CSC1=NCCN1)Nc1cccc([N+](=O)[O-])c1 0%
O=C(Cc1ccccn1)NCC[C@@H]1CC[C@H](NC(=O)Nc2ccc(C(F)(F)F)cc2)[C@H](CO)O1 14.3%
COc1cccc(NC(=O)N(C)C[C@H]2OCc3ccccc3-c3c(n(C)c4ccccc34)C(=O)N([C@H](C)CO)C[C@H]2C)c1 27.4%
COc1ccc(CNC(=O)c2cc3c(c(-c4cccc(-c5ccc(C#N)cc5)c4)n2)[C@@H](CCO)N([S@](=O)C(C)(C)C)C3)cc1 19.3% [at 23.5 µM]
CC(C)C[C@H](NC(=O)c1nc[nH]c1C(=O)N1CCN(C(=O)OC(C)(C)C)CC1)C(=O)OC(C)(C)C -3.33%
COc1cccc(C(=O)Nc2sc3c(c2C#N)CCN(C(C)=O)C3)c1 12.7%
O=C(CCc1ccccc1)NCC(c1ccco1)N1CCc2ccccc21 (stereo not drawn) -6.46%
CCCCNC(=O)C(=O)Nc1ccc2c(c1)N(S(=O)(=O)c1cccs1)CCC2 6.25%
COc1ccc(OCC(=O)N/N=C/C=C/c2ccccc2)cc1 0.208%
COc1ccc2c(c1)[nH]c1c(=O)n(/N=C/c3ccc(OC)c(CN4CCCC4)c3)cnc12 -3.33%
Cc1noc(C)c1NC(=O)N(C)C[C@H]1Oc2cc(C#CCC3CCCC3)ccc2S(=O)(=O)N([C@@H](C)CO)C[C@@H]1C -1.85%
C[C@H]1CN([C@@H](C)CO)S(=O)(=O)c2ccc(C3=CCCCC3)cc2O[C@@H]1CN(C)C(=O)Cc1ccncc1 -3.57%
C/C=C/c1ccc([C@H]2[C@@H](CO)N(C(=O)COC)[C@@H]2CNC(=O)CC)cc1 15.8% [at 23.5 µM]
CC[N+]1(CC)CC2=Cc3ccccc3CC2C1 (stereo not drawn) 0%
COc1ccc(NCC(=O)n2c(C)c(C)c3ccccc32)cc1 19.9%
CCOc1ccc(NC(=O)c2cc(OC)nc3ccccc23)cc1 -6.67%
COC(=O)c1ccc(CS(=O)(=O)c2ccc(F)cc2)o1 3.12%

Retrieved one by one from the list above (3):
Activity change, negative = more quenching (active), inactive:
COc1cccc(N=Nc2ccc3cccnc3c2O)c1 9.79%
Cc1cccc(N2CCN(C(=O)c3ccc4[nH]c(C)c(C)c4c3)CC2)c1C -6.67%
COc1cc(OC)cc(C(=O)NC(=S)Nc2ccc3oc(=O)ccc3c2)c1 12.5%
